Laboratory results from PubChem BioAssay AID493014 (National Center for Advancing Translational Sciences (NCATS), 2011).
The other results are listed elsewhere or left out. Further columns of the screen follow, without active or inactive calls. Compounds called inactive in the main read-out are mostly missing here. Potencies come from curve fits of mixed quality, noted in brackets.

Experiment: qHTS Assay to Find Inhibitors of Chronic Active B-Cell Receptor Signaling
Conditions: ABC-DLBCL IkBa-CBG/CBR reporter, luminescence ratio (green luciferase fused to IkBa over red control in TMD8 lymphoma cells), 4 h
Summary of the method: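 TMD8 human ABC-DLBCL cells with doxycycline-inducible IκBα–green luciferase fusion and unfused red luciferase, in 0.5% FBS medium; compounds up to 46 uM, 4 h at 37C. Green/red luminescence ratio, filter-overlap corrected, fitted to concentration-response curves.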

[1] = measured here: CBR red luminescence, cell number

SMILES | AC50 [1] | AC50 (measured here: IkBa-CBG green luminescence)
Cc1c(N2C(=O)/C(=C3\C(=O)N(CC(=O)O)c4ccccc43)SC2=S)c(=O)n(-c2ccccc2)n1C | 25.1 µM [falling, single point] | 
CN(C)c1ccc(/C=C/c2ccc3ccccc3n2)cc1 | 6.31 µM [falling, partial curve, poor fit] | 
COc1ccc(N(CC(=O)Nc2cccc(SC)c2)S(C)(=O)=O)cc1Cl | 10 µM [falling, partial curve, poor fit] | 
CCc1ccccc1NC(=O)CN1CCN(C(=O)COc2ccccc2C#N)CC1 | 11.6 µM [falling, partial curve] | 
Cc1ccc(-n2c(O)c(/C=N/N3CCOCC3)c(=O)[nH]c2=S)cc1 | 1.46 µM [rising, full curve, poor fit] | 
CCN(CC)C(=O)Cn1cc(/C=C2\C(=O)NC(=O)N(c3ccccc3F)C2=O)c2ccccc21 | 35.5 µM [falling, single point] | 
CCn1nc(-c2cccs2)nc2c(=O)n(C)c(=O)nc1-2 | 7.08 µM [falling, full curve, poor fit] | 
CCCCn1c(=O)c(C=Nc2ccc(Cl)cc2)c(O)n(Cc2ccco2)c1=O | 9.2 µM [falling, partial curve, poor fit] | 
O=C(Nc1ccon1)c1cccn(Cc2ccccc2)c1=O | 1.78 µM [falling, full curve] | 
O=C1NC(=O)N(CC2CCCO2)C(=O)/C1=C/c1cccs1 (stereo not drawn) | 20 µM [rising, single point] | 
CCOc1cc(CNCCc2c[nH]c3ccccc23)cc(Cl)c1OCC | 29.1 µM [falling, single point] | 
CCCCn1c(NS(=O)(=O)c2ccccc2)c(C(=O)OCC)c2nc3ccccc3nc21 | 6.51 µM [rising, single point] | 3.66 µM [falling, full curve, poor fit]
C[C@]12CCC(=O)C(O)=C1CC[C@@H]1[C@@H]2CC[C@]2(C)C(=O)CC[C@@H]12 | 11.6 µM [rising, partial curve] | 
COc1ccc(NC(=O)CSc2nnc(C)c3ccccc23)cc1 | 35.5 µM [falling, single point] | 
COC(=O)c1c(C)oc2ccc(OC(=O)N3CCOCC3)cc12 | 6.31 µM [falling, partial curve, poor fit] | 
O=c1c2ccccc2nc(/C=C/c2ccc(O)cc2)n1-c1cccc(O)c1 | 10 µM [falling, partial curve] | 
COc1ccc(/C=C/c2nc3ccccc3c(=O)n2-c2ccc(C)cc2)cc1O | 35.5 µM [falling, single point] | 

Single records, as listed above:
CCCCn1c(=O)c(C=Nc2ccc(Cl)cc2)c(O)n(Cc2ccco2)c1=O in the list: AC50 [1]: 9.2 µM [falling, partial curve, poor fit]
Cc1c(N2C(=O)/C(=C3\C(=O)N(CC(=O)O)c4ccccc43)SC2=S)c(=O)n(-c2ccccc2)n1C in the list: AC50 [1]: 25.1 µM [falling, single point]
